According to the supplement of paper PMC11732987, “Enantioselective OTUD7B fragment discovery through chemoproteomics screening and high-throughput optimisation” (Communications Chemistry, 2025):
The list shows a part of the results. The data scatter; read single values as rough.

Chains of the proteins cited; added tags and fusions are not shown. Lines headed by an entry give the natural chain unless they say otherwise; changes in a name come on top. Residues count along the entry.
UniProt Q9Y3A5: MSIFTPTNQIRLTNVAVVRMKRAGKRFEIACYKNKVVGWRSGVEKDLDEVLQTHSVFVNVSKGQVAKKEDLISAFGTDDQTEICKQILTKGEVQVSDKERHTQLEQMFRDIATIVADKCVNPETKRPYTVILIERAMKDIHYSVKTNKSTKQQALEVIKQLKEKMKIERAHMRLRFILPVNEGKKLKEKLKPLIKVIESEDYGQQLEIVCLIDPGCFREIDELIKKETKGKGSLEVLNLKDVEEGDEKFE
UniProt Q86XK3, 197-216: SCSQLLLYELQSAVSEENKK
UniProt O94855: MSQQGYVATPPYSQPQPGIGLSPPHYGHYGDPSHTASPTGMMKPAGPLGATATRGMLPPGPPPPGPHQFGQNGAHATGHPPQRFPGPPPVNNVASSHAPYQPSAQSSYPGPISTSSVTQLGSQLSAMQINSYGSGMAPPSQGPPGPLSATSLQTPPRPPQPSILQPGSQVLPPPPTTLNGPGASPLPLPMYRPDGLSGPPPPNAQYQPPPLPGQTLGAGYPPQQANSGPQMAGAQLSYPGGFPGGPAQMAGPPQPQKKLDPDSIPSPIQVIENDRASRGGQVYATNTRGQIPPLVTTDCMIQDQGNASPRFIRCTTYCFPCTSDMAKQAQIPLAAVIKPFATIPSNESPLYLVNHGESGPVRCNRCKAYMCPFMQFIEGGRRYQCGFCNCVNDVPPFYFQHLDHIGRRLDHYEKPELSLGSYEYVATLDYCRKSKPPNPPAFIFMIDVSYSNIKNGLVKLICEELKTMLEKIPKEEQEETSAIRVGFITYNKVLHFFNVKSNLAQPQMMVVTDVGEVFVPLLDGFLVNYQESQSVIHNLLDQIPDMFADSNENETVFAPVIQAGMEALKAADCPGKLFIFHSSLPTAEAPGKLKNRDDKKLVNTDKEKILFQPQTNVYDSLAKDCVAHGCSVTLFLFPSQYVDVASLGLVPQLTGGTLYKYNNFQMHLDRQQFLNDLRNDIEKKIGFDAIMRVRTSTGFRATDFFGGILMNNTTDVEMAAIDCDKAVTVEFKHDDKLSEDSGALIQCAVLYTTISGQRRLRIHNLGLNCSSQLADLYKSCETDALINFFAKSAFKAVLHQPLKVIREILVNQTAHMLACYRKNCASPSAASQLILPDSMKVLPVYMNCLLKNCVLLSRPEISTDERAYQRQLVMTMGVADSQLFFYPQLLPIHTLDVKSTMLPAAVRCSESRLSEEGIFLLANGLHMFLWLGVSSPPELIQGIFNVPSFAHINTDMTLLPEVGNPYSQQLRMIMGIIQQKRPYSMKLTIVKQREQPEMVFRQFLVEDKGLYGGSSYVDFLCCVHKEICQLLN
UniProt Q99611, 2-30: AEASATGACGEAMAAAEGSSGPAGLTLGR
UniProt P55735: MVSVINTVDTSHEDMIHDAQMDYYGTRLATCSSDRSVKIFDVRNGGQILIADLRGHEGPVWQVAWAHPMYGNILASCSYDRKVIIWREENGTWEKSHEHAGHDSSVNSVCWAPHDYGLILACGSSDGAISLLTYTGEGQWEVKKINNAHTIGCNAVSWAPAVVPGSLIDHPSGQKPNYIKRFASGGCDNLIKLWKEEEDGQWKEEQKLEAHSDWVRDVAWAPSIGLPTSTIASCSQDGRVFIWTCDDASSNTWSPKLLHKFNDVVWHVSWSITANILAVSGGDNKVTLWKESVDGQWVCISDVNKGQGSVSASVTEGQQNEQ
UniProt Q9P2F8: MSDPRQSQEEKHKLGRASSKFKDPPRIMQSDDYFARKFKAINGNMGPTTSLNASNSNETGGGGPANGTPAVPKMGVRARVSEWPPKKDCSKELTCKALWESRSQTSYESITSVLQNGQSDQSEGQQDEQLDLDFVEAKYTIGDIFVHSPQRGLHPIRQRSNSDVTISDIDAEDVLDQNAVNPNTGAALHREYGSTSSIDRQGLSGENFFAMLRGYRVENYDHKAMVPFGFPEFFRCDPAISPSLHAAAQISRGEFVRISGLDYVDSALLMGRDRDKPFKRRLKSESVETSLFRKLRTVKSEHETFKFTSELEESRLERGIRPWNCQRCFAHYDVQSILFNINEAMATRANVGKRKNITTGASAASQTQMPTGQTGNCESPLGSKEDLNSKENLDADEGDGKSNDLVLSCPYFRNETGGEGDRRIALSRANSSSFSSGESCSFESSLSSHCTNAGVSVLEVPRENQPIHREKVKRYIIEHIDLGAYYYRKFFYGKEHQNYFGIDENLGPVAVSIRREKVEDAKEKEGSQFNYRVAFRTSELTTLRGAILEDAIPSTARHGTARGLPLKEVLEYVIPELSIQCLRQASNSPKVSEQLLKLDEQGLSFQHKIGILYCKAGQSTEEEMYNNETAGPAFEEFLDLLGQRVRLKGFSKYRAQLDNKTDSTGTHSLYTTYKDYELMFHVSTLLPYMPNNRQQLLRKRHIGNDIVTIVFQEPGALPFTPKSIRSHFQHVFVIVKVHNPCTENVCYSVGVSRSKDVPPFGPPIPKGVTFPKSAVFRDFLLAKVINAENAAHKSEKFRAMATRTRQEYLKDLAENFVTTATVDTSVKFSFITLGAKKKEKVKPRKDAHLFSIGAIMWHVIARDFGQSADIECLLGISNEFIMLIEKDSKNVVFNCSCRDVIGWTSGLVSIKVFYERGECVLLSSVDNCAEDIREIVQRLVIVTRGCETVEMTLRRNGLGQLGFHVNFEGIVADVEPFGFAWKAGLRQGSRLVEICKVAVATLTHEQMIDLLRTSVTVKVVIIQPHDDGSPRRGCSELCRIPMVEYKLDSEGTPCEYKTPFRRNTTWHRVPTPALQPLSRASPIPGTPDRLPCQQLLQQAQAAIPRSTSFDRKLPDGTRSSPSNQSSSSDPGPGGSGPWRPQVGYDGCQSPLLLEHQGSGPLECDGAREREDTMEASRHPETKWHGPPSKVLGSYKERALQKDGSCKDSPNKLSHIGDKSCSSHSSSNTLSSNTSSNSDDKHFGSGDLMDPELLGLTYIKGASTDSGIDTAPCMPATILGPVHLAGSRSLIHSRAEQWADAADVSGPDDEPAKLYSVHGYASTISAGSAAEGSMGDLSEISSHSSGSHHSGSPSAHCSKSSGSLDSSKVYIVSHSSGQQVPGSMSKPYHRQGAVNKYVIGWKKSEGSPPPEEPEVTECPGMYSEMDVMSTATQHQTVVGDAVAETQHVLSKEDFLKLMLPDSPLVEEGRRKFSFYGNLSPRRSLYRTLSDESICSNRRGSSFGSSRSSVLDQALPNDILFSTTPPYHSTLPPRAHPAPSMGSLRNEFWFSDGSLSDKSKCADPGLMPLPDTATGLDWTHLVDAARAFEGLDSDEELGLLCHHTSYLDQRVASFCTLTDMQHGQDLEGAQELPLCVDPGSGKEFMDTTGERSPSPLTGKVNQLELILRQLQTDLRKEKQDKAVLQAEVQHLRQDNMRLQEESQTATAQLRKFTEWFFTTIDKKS
UniProt Q8NEM2: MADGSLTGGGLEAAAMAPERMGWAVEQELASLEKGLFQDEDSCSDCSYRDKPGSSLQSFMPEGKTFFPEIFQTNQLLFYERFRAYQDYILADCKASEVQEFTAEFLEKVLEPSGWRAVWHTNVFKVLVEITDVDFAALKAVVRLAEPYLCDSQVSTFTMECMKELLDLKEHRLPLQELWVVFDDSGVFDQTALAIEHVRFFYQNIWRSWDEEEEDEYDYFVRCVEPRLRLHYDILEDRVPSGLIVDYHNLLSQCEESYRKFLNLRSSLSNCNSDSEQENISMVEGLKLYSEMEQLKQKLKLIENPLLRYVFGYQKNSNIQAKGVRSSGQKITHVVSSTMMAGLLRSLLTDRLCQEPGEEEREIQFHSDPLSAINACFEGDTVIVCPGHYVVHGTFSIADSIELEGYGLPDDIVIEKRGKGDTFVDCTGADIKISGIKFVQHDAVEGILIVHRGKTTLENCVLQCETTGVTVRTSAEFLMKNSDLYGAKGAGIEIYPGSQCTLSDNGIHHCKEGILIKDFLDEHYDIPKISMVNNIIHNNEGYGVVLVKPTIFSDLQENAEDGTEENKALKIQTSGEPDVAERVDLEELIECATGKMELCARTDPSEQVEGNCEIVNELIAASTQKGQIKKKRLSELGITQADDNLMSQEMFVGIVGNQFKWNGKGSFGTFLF
UniProt Q96NB2: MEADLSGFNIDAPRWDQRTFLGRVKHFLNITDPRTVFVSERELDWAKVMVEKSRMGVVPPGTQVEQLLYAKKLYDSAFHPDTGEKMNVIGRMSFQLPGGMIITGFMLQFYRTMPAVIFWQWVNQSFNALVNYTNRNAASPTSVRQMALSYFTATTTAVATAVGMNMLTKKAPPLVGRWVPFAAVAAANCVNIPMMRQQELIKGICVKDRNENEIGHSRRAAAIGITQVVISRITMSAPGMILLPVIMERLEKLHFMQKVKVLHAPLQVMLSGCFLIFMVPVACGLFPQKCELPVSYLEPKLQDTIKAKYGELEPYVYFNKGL
UniProt Q12872: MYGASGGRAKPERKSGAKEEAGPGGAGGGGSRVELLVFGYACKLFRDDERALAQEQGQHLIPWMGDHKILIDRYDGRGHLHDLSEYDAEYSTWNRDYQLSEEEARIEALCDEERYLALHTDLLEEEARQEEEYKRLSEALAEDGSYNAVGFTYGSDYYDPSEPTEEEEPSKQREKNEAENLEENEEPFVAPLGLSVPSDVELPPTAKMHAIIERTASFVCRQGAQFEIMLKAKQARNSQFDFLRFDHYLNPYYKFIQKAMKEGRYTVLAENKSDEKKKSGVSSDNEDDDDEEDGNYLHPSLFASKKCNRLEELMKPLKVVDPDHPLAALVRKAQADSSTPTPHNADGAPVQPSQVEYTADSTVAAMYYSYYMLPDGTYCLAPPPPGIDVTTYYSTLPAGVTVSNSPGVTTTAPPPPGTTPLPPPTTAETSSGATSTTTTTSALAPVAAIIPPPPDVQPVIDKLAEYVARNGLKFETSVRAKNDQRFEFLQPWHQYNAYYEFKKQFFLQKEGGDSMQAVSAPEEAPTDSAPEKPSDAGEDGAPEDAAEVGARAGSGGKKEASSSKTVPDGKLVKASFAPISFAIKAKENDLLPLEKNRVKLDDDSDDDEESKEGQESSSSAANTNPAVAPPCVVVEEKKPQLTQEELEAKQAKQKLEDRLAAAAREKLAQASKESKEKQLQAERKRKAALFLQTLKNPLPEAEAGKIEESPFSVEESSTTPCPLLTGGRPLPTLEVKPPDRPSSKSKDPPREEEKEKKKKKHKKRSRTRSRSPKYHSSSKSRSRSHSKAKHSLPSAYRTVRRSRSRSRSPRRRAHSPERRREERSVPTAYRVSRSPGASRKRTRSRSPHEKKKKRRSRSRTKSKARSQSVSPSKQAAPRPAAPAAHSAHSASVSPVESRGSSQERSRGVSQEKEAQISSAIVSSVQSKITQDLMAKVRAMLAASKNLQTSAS
UniProt Q9BQF6: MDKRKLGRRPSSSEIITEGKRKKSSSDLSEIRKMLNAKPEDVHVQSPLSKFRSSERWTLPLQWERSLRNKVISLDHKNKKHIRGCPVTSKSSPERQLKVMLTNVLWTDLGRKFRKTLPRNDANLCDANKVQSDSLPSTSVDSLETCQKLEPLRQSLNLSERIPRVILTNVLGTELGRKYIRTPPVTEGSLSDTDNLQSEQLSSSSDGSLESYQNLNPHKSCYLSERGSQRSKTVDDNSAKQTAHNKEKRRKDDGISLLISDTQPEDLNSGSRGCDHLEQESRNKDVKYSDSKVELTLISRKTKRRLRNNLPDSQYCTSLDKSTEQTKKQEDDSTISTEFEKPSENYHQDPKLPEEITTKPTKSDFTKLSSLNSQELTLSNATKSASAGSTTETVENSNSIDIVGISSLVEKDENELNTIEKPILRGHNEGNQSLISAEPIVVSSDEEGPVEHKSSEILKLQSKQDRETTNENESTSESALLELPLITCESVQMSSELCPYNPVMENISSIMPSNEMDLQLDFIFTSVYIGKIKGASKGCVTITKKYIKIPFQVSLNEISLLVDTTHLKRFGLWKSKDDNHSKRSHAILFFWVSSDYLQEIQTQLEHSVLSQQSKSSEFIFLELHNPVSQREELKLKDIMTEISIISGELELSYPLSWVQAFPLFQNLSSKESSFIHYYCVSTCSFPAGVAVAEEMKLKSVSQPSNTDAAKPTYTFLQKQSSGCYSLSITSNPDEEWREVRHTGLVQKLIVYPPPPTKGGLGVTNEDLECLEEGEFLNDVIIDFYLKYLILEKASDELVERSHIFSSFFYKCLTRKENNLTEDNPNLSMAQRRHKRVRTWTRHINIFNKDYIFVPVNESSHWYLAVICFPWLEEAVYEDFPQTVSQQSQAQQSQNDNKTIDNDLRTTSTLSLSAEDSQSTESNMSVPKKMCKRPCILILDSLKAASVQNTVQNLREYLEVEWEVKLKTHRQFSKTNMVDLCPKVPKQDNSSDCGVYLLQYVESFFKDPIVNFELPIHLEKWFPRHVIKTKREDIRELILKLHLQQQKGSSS

The targets below were run with ClCC(=O)N[C@H]1CCCc2ccccc12 (assay: log2 mean competition ratio of IA-DTB cysteine labelling (DMSO/compound) (log2 ratio); higher = stronger cysteine engagement by compound). Conditions: 50 µM; treatment time: 4 h; cell line lysate: HEK293T.
Experimental: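 IA-DTB competitive cysteine chemoproteomics in HEK293T RIPA lysate. Lysates were treated with compound 29 or 30 at 50 or 200 µM for 4 h, then IA-DTB (500 µM, 1 h), trypsin-digested, NeutrAvidin-enriched and analysed by diaPASEF. Competition ratio = intensity DMSO / intensity compound (n=4 treated, n=64 DMSO); binding: mean log2 CR ≥ 1 and p ≤ 0.05 plus QC filters. Target is the cysteine site.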

How did the “log2 mean competition ratio” value turn out when SBDS C119 (UniProt Q9Y3A5) was run?
Its value is -0.0578.

SFR1 C198 (UniProt Q86XK3) was tested. Which “log2 mean competition ratio” value did it give?
Its value is -0.0657.

For SAE1 C214, which “log2 mean competition ratio” value is on record?
The value was 0.426.

How did the “log2 mean competition ratio” value turn out when SEC24D C853 (UniProt O94855) was run?
The value was -0.668.

How did the “log2 mean competition ratio” value turn out when SEPHS2 C10 (UniProt Q99611) was run?
Its value is 0.148.

Which “log2 mean competition ratio” value does the source give for SEC13 C187 (UniProt P55735) here?
The value was -0.178.

For SIPA1L2 C1054 (UniProt Q9P2F8), which “log2 mean competition ratio” value is on record?
Its value is 0.0135.

With SHCBP1 C353 (UniProt Q8NEM2) as the target, how does the “log2 mean competition ratio” value read?
Its value is -0.114.

With SFXN2 C290 (UniProt Q96NB2) as the target, how does the “log2 mean competition ratio” value read?
Its value is -0.593.

For SFSWAP C220 (UniProt Q12872), which “log2 mean competition ratio” value is on record?
Its value is 0.0956.

SENP6 C833 (UniProt Q9GZR1) was tested. Which “log2 mean competition ratio” value did it give?
Its value is 0.149.

For SELENOO C219 (UniProt Q9BVL4), which “log2 mean competition ratio” value is on record?
The value was 0.0546.

SCAF1 C362 (UniProt Q9H7N4) was tested. Which “log2 mean competition ratio” value did it give?
Its value is -0.129.

Which “log2 mean competition ratio” value does the source give for SCAPER C71 (UniProt Q9BY12) here?
The value was -0.146.

Which “log2 mean competition ratio” value does the source give for SH3RF3 C194 here?
The value was -0.341.

How did the “log2 mean competition ratio” value turn out when SETDB1 C53 (UniProt Q15047) was run?
The value was -0.0509.

How did the “log2 mean competition ratio” value turn out when SIN3A C910 (UniProt Q96ST3) was run?
The value was -0.492.

With SELENOO C364 (UniProt Q9BVL4) as the target, how does the “log2 mean competition ratio” value read?
Its value is -0.0601.

SENP7 C316 (UniProt Q9BQF6) was tested. Which “log2 mean competition ratio” value did it give?
Its value is 0.013.

How did the “log2 mean competition ratio” value turn out when SDCCAG8 C236 was run?
The value was -0.39.

Same assay, conditions: 200 µM; treatment time: 4 h; cell line lysate: HEK293T

How did the “log2 mean competition ratio” value turn out when SBDS C119 (UniProt Q9Y3A5) was run?
Its value is -0.348.

For SARM1 C649 (UniProt Q6SZW1), which “log2 mean competition ratio” value is on record?
The value was 0.21.

Which “log2 mean competition ratio” value does the source give for SFR1 C198 (UniProt Q86XK3) here?
The value was -0.0434.

SAE1 C214 was tested. Which “log2 mean competition ratio” value did it give?
The value was -0.0842.

How did the “log2 mean competition ratio” value turn out when SEC24D C853 (UniProt O94855) was run?
The value was -0.293.

SEPHS2 C10 (UniProt Q99611) was tested. Which “log2 mean competition ratio” value did it give?
Its value is -0.196.

How did the “log2 mean competition ratio” value turn out when SEC13 C187 (UniProt P55735) was run?
Its value is -0.0404.

Which “log2 mean competition ratio” value does the source give for SIPA1L2 C1054 (UniProt Q9P2F8) here?
Its value is 0.0979.

Which “log2 mean competition ratio” value does the source give for SHCBP1 C353 (UniProt Q8NEM2) here?
Its value is -0.181.

With SFXN2 C290 (UniProt Q96NB2) as the target, how does the “log2 mean competition ratio” value read?
The value was 0.324.

For SFSWAP C220 (UniProt Q12872), which “log2 mean competition ratio” value is on record?
The value was -0.0282.

SENP6 C833 (UniProt Q9GZR1) was tested. Which “log2 mean competition ratio” value did it give?
Its value is 0.127.

For SELENOO C219 (UniProt Q9BVL4), which “log2 mean competition ratio” value is on record?
The value was -0.14.

SCAF1 C362 (UniProt Q9H7N4) was tested. Which “log2 mean competition ratio” value did it give?
The value was 0.172.

Which “log2 mean competition ratio” value does the source give for SCAPER C71 (UniProt Q9BY12) here?
Its value is 0.322.

For SH3RF3 C194, which “log2 mean competition ratio” value is on record?
Its value is 0.281.

How did the “log2 mean competition ratio” value turn out when SETDB1 C53 (UniProt Q15047) was run?
Its value is 0.223.

Which “log2 mean competition ratio” value does the source give for SIN3A C910 (UniProt Q96ST3) here?
Its value is 0.0672.

With SELENOO C364 (UniProt Q9BVL4) as the target, how does the “log2 mean competition ratio” value read?
The value was -0.252.

Which “log2 mean competition ratio” value does the source give for SENP7 C316 (UniProt Q9BQF6) here?
Its value is -0.369.

Which “log2 mean competition ratio” value does the source give for SDCCAG8 C236 here?
The value was 0.176.
